Data as given in publication PMC6345817.
Results are given in words; binding and its absence hold for the method and conditions named. Some binding calls cover weakened binding; strength is not graded here.

Amino acid sequences for entries named in this document (tags omitted). Residues count along the entry.
UniProt Q99523, residues 778-831: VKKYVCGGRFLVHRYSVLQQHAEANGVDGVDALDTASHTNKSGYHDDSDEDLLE
UniProt Q96PQ0, residues 1101-1159: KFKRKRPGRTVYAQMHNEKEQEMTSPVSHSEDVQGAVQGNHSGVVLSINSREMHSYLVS
UniProt Q9UJY4, residues 37-202: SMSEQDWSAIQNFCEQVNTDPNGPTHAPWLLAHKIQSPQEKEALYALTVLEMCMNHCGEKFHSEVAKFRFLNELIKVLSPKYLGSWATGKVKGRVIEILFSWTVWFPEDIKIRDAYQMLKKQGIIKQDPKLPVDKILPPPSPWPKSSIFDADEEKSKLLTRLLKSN

T1: SORCS1C cytoplasmic domain K1121-K1179 (pB27 bait) (human (from the printed RefSeq entry)) (UniProt Q8WY21)
T1 sequence: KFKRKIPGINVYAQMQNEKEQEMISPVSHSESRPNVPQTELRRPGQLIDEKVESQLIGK

T2: MPR300 cytoplasmic domain K2328-I2491 (pB27 bait) (human (from the printed RefSeq entry)) (UniProt P11717)
T2 sequence: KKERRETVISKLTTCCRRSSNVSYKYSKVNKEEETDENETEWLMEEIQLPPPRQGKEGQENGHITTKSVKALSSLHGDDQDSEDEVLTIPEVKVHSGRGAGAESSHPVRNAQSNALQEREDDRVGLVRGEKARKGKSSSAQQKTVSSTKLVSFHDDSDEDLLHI

B1: HSPA12A fragment T513-Y675 (pP6 prey clone identified by Hybrigenics) (domain or fragment, UniProt O43301 513-675)
chain: TILKGAVLFGLDPAVIKVRRSPLTYGVGVLNRYVEGKHPPEKLLVKDGTRWCTDVFDKFISADQSVALGELVKRSYTPAKPSQLVIVINIYSSEHDNVSFITDPGVKKCGTLRLDLTGTSGTAVPARREIQTLMQFGDTEIKATAIDIATSKSVKVGIDFLNY

Legend:
[1] = molecular target: Sortilin cytoplasmic domain V778–E831 (pB27 bait) (human (from the printed RefSeq entry)) (UniProt Q99523); assay: two-hybrid; pairwise test, data not shown
[2] = molecular target: T1, SORCS1C cytoplasmic domain K1121-K1179 (pB27 bait) (human (from the printed RefSeq entry)); assay: two-hybrid; pairwise test: pB27 (LexA) bait and pP6 prey plasmids; cells spotted on plates without Leu/Trp/His; 3-AT against bait auto-activation (10 or 15 mM for SorLA-cd, 20 mM for MPR46-cd); done three times
[3] = molecular target: T2, MPR300 cytoplasmic domain K2328-I2491 (pB27 bait) (human (from the printed RefSeq entry)); assay: as above
[4] = molecular target: SORCS2 cytoplasmic domain K1101-S1159 (pB27 bait) (human (from the printed RefSeq entry)) (UniProt Q96PQ0); assay: as above

Molecule	binding [1]	binding [2]	binding [3]	binding [4]
GGA2 fragment S37-N202 (pP6 prey clone, VHS domain) (from UniProt Q9UJY4 37-202) (domain or fragment)	binds			
B1		no binding	no binding	no binding
